This is one part of the list.
target: T1, OsSMF1 (Oryza sativa, UniProt Q6ZLB0 1-436); experiment: protein-binding microarray (RPBM); PBS, 2% BSA, 51.3 ng/ul salmon testes DNA, 50 uM zinc acetate, 200 nM TF, 25 C, 1 h; high values mean tight binding; conditions: protein: recombinant; tags: N-terminal polyhistidine and DsRed monomer fusion (pET32a); chain copies: 2; label: CyDye5-dUTP incorporated in the synthesized complementary strand; 3' TTTTT single-stranded linker to array surface; dsDNA, one strand shown
T1 sequence: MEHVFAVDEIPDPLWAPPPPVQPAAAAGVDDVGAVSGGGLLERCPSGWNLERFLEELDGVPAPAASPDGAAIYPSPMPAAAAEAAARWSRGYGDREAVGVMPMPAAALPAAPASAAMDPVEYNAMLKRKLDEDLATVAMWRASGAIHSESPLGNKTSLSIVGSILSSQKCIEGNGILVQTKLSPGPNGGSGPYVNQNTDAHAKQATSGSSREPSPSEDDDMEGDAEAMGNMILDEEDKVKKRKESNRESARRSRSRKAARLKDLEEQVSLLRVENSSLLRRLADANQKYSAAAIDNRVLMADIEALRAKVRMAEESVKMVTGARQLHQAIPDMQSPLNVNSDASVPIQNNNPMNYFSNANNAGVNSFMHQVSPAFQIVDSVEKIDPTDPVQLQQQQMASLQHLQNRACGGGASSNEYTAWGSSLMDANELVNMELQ
Outline: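 The binding signal for each feature is its fluorescence intensity in arbitrary units. An Axon 4000B scanner was used to read a custom Agilent array that had been made double-stranded with Cy5-dUTP primer extension, blocked with 2% BSA, incubated at 25 °C for 1 h with 200 nM protein in PBS, 2% BSA, salmon testes DNA and 50 µM zinc acetate, and washed. The protein was an N-terminal polyhistidine–DsRed transcription factor fusion from E. coli BL21-CodonPlus, purified on Ni–NTA.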

Row | Sequence | binding signal
1 | GTGTAGGGCAGCAAGGTGACGTGGCACATGGCGCCGTGTGCGGAGTCACCTAGTGCAG | 13600 fluorescence intensity (a.u.)
2 | ACAGTAAAATTTCTCAAAAGGTCAAATACACAAGTGAACACGGAGTCACCTAGTGCAG | 7440 fluorescence intensity (a.u.)
3 | CACAACAATTTCGCAGCTCATAGCTGGGCACTACCACGCGCGGAGTCACCTAGTGCAG | 3150 fluorescence intensity (a.u.)
4 | TGAAACATATTTTCATGCGTCGGTGTCATCCTACGTACAACGGAGTCACCTAGTGCAG | 5460 fluorescence intensity (a.u.)
5 | CCCGCCGTGACGTCACCGGCCTATATATATCGCGGTGGCTCGGAGTCACCTAGTGCAG | 16700 fluorescence intensity (a.u.)
6 | TAGATTGCTTTTCAGTGAAACTACGTGCACATATGCATGCCGGAGTCACCTAGTGCAG | 3250 fluorescence intensity (a.u.)
7 | CTTGTATTACGTGTAATATTCATGATTGAGCAGGTTCCAACGGAGTCACCTAGTGCAG | 4320 fluorescence intensity (a.u.)
8 | CCAAGAACTTATAACTTAATGTTTAGATTCTTTGATGACGCGGAGTCACCTAGTGCAG | 4660 fluorescence intensity (a.u.)
9 | GAAGTATCAGTTAACTATACGCCTATACCTGCTAATGAACCGGAGTCACCTAGTGCAG | 28400 fluorescence intensity (a.u.)
10 | CCCCAACTGTCATCGCACGTTGGCGCTGAACTGGTGCGCCCGGAGTCACCTAGTGCAG | 3780 fluorescence intensity (a.u.)
11 | AGGGAGCAGGGTGGGCGTGTCTTCGTACATTGTTGCCAGGCGGAGTCACCTAGTGCAG | 3820 fluorescence intensity (a.u.)
12 | ACTGATTGGGATGCCACGTCAACGAAACTAGATATCCATACGGAGTCACCTAGTGCAG | 8680 fluorescence intensity (a.u.)
13 | CGGCAGCGGCAGTGTAGTGTCAGTCACTGGGTGTGCGCTTCGGAGTCACCTAGTGCAG | 3390 fluorescence intensity (a.u.)
14 | AAAGCGGACGTCATCATTCATCCTCGAGCCCCTCAACTGGCGGAGTCACCTAGTGCAG | 8430 fluorescence intensity (a.u.)
15 | ATGGTCCATGTCGCCGTACGTGACACCGGCCGCGAGCCTACGGAGTCACCTAGTGCAG | 3200 fluorescence intensity (a.u.)
16 | CTAGTTATAGAAATAGATAAAATCAATGACAAATCGTTGACGGAGTCACCTAGTGCAG | 3190 fluorescence intensity (a.u.)
17 | CTTGAGTCTCACTGTAGTTGAACTGCCTCCACGCAAGTTACGGAGTCACCTAGTGCAG | 4040 fluorescence intensity (a.u.)
18 | GATCCCGGCAACATTGGAGAAGATCATGACGGGGACGACCCGGAGTCACCTAGTGCAG | 4210 fluorescence intensity (a.u.)
19 | GCATGTAGCTATGCAGCCATCCACGTCACTCCTTGCGTACCGGAGTCACCTAGTGCAG | 31800 fluorescence intensity (a.u.)
20 | TTACAAACAACGCCTTGCATGATTGCATCATCGCCCTAAACGGAGTCACCTAGTGCAG | 4300 fluorescence intensity (a.u.)
21 | TTCGACCACGTCGTCGGCAACGTGCCGGAGCTCGCTCCGGCGGAGTCACCTAGTGCAG | 3210 fluorescence intensity (a.u.)

Row | Sequence | binding signal
22 | TATCATACCCACGTCGGTGCCCATTGGGTCACCCACGCGTCGGAGTCACCTAGTGCAG | 5520 fluorescence intensity (a.u.)
23 | GTGTTATGAGTTGTGCCACCGTCTTCTCTCCCGTATAATCCGGAGTCACCTAGTGCAG | 3340 fluorescence intensity (a.u.)
24 | ATCATTATTCCTACGTGTTTACAATTCTTCGATAAAATACCGGAGTCACCTAGTGCAG | 4060 fluorescence intensity (a.u.)
25 | CTTTTGCTTCTGTCGTGTTGTGTGTACCCAACGTGGGGTGCGGAGTCACCTAGTGCAG | 3930 fluorescence intensity (a.u.)
26 | ATTGAAGCCTATTTATTGGTAATACGTAATCTAGATTTGACGGAGTCACCTAGTGCAG | 3700 fluorescence intensity (a.u.)
27 | CATTCTTGATTTCATACGTAATAGCGATATGTTTCAATGTCGGAGTCACCTAGTGCAG | 22300 fluorescence intensity (a.u.)
28 | TTTAAACCTAGTTGTGTCATGATTTTACAATGTGGTGCTACGGAGTCACCTAGTGCAG | 3390 fluorescence intensity (a.u.)
29 | GTAAAGTTTTAGTACCTCGAGATATTATTTTGAAAACCATCGGAGTCACCTAGTGCAG | 3290 fluorescence intensity (a.u.)
30 | TGGGCTGATGCGCGACCATACTGACGCGTGTGCGGCAGATCGGAGTCACCTAGTGCAG | 4450 fluorescence intensity (a.u.)
31 | TCATGCAGACGTTCAAACGTTCGATGTGATAGGGCGTAAACGGAGTCACCTAGTGCAG | 3390 fluorescence intensity (a.u.)
32 | TGGTCCTCTTTGTCTGAAATCGACGGGTAGCAATGCACGCCGGAGTCACCTAGTGCAG | 27900 fluorescence intensity (a.u.)
33 | GCTTTAGGCCGATTTTGTTGGTGTGGCCGAATTTTGTGTGCGGAGTCACCTAGTGCAG | 3870 fluorescence intensity (a.u.)
34 | CAGCGATTACCGGGCGCTGTCCGCGACCCCAACCACCACCCGGAGTCACCTAGTGCAG | 3140 fluorescence intensity (a.u.)
35 | TGCCGGCACGTGCCTCATCCTCGTCGTTGGCATCCGTGCGCGGAGTCACCTAGTGCAG | 5440 fluorescence intensity (a.u.)
36 | ACACGTGGGTCCACGTAGGCGACACGTCAATGCCACGTCACGGAGTCACCTAGTGCAG | 55900 fluorescence intensity (a.u.)
37 | GATGACCACCACCAACAGGCAACAGCAGCAGCGTGGCGCCCGGAGTCACCTAGTGCAG | 3430 fluorescence intensity (a.u.)
38 | GCAGGTGGATTCGGCGAGCGCCCACGTGCTGACCACCGGCCGGAGTCACCTAGTGCAG | 3590 fluorescence intensity (a.u.)
39 | ATCGGTCGCGGCCGCTGGGATGAAGCCACGCGTCCCTCCCCGGAGTCACCTAGTGCAG | 5130 fluorescence intensity (a.u.)
40 | CTGCTGCAGTTGAGCTGTACTGTTTTGGTGGGTTGGTTTTCGGAGTCACCTAGTGCAG | 4070 fluorescence intensity (a.u.)
41 | GAATTTATGGTTGAATACTTAACTTAAAATCCAAGGAACCCGGAGTCACCTAGTGCAG | 3220 fluorescence intensity (a.u.)
42 | CACCGCATTCGGGAAGCTCGGACCTGATGAGGCACATCCACGGAGTCACCTAGTGCAG | 10600 fluorescence intensity (a.u.)

4 entries picked at random from those above, as already listed:
Row | Sequence | binding signal
19 | GCATGTAGCTATGCAGCCATCCACGTCACTCCTTGCGTACCGGAGTCACCTAGTGCAG | 31800 fluorescence intensity (a.u.)
13 | CGGCAGCGGCAGTGTAGTGTCAGTCACTGGGTGTGCGCTTCGGAGTCACCTAGTGCAG | 3390 fluorescence intensity (a.u.)
24 | ATCATTATTCCTACGTGTTTACAATTCTTCGATAAAATACCGGAGTCACCTAGTGCAG | 4060 fluorescence intensity (a.u.)
36 | ACACGTGGGTCCACGTAGGCGACACGTCAATGCCACGTCACGGAGTCACCTAGTGCAG | 55900 fluorescence intensity (a.u.)
